These are yes or no findings as the source states them, for the method shown. Some entries that bind do so weakly or less than the wild type. Where a sequence is shown, tags or fusion partners need not be part of it.
Assays:
[1] = target: Alexa647-conjugated CD5 protein (UniProt P06127); assay: flow cytometry of transfected HEK293T cells stained with labeled CD5
[2] = target: Alexa647-conjugated CD5 protein (UniProt P06127); assay: flow cytometry of HEK293 cells stained with Alexa647-conjugated CD5 protein

Protein sequences, listed by entry. Tags and fused reporters are not part of them. Residues count along the entry.
UniProt P06127, residues 25-372: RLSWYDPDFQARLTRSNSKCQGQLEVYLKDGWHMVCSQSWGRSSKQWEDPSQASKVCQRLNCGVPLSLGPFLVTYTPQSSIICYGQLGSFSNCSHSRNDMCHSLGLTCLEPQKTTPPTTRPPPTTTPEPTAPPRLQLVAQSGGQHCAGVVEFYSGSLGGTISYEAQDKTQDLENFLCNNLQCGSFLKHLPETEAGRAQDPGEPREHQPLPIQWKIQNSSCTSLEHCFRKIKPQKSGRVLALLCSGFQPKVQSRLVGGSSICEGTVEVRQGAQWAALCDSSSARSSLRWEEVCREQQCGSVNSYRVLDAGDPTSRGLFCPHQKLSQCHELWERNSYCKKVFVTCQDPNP

- binding [1]: binds
- binding [2]: binds
B1: CD5-intron-fcr-PI3K (ATAK) recombinant chimeric fusion receptor protein (receptor)
chain: EIQLVQSGGGLVKPGGSVRISCAASGYTFTNYGMNWVRQAPGKGLEWMGWINTHTGEPTYADSFKGRFTFSLDDSKNTAYLQINSLRAEDTAVYFCTRRGYDWYFDVWGQGTTVTVSSGGGGSGGGGSGGGGSDIQMTQSPSSLSASVGDRVTITCRASQDINSYLSWFQQKPGKAPKTLIYRANRLESGVPSRFSGSGSGTDYTLTISSLQYEDFGIYYCQQYDESPWTFGGGTKLEIKSGGGGSGALSNSIMYFSHFVPVFLPAKPTTTPAPRPPTPAPTIASQPLSLRPEACRPAAGGAVHTRGLDIYIWAPLAGTCGVLLLSLVITLYCRRLKIQVRKAAITSYEKSDGVYTGLSTRNQETYETLKHEKPPQGSGSYEDMRGILYAAPQLRSIRGQPGPNHEEDADSYENM

— patent publication US20230141052A1
